In the supplement of paper PMC10849652:
The other results are listed elsewhere or left out.

Amino acid sequences for entries named in this document (tags omitted). A change or cut given only in a name is not applied to a line headed by its entry.
UniProt Q8TCJ2: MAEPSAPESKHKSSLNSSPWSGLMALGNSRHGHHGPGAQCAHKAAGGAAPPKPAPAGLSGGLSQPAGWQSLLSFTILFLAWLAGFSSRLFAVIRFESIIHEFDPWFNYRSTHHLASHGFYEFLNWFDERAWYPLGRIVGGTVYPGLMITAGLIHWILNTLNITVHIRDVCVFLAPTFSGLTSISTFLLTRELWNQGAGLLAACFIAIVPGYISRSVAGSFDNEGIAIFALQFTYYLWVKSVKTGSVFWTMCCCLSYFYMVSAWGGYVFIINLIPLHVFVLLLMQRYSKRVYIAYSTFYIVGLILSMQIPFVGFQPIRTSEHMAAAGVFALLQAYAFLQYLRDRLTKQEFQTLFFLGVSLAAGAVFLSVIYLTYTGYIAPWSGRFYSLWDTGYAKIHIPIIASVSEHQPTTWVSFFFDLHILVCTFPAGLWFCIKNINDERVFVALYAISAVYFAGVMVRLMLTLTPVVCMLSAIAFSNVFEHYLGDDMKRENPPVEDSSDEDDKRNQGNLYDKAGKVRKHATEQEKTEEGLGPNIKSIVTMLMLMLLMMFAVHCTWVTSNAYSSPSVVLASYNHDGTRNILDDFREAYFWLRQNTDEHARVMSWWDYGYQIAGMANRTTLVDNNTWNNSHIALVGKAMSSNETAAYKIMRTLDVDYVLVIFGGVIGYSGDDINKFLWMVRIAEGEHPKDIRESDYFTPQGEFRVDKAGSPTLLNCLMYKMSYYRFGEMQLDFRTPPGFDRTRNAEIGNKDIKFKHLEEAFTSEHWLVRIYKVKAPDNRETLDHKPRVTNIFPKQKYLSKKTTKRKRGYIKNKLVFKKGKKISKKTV
UniProt P56962: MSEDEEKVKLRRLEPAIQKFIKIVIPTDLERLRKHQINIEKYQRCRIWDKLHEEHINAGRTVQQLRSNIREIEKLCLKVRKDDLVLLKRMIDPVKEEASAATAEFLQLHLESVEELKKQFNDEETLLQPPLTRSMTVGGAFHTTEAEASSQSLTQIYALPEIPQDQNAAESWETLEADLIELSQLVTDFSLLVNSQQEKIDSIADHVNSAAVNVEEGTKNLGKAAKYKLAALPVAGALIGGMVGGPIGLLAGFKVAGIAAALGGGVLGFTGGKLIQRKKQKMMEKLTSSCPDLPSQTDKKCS
UniProt O15533, whole entry, looked up: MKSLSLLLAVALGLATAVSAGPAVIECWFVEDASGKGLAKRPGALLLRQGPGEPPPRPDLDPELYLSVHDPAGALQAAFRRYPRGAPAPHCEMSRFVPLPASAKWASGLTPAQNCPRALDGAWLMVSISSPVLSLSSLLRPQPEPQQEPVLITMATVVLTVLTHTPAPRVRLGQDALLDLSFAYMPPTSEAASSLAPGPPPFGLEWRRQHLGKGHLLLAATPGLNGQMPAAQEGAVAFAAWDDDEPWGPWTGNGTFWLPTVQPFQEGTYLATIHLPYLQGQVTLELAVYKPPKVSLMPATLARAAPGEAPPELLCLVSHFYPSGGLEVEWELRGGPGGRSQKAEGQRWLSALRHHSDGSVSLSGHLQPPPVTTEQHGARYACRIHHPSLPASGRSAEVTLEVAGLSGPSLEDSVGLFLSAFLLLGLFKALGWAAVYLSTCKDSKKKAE
UniProt Q12846: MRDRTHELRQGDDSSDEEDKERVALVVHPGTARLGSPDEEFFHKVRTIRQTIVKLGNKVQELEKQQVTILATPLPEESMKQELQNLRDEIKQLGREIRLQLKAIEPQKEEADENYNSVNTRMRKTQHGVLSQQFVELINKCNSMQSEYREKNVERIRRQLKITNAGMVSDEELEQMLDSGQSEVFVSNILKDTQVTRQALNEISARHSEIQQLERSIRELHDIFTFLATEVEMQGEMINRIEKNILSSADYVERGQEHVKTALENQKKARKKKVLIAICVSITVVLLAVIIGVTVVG
UniProt Q4KMP7: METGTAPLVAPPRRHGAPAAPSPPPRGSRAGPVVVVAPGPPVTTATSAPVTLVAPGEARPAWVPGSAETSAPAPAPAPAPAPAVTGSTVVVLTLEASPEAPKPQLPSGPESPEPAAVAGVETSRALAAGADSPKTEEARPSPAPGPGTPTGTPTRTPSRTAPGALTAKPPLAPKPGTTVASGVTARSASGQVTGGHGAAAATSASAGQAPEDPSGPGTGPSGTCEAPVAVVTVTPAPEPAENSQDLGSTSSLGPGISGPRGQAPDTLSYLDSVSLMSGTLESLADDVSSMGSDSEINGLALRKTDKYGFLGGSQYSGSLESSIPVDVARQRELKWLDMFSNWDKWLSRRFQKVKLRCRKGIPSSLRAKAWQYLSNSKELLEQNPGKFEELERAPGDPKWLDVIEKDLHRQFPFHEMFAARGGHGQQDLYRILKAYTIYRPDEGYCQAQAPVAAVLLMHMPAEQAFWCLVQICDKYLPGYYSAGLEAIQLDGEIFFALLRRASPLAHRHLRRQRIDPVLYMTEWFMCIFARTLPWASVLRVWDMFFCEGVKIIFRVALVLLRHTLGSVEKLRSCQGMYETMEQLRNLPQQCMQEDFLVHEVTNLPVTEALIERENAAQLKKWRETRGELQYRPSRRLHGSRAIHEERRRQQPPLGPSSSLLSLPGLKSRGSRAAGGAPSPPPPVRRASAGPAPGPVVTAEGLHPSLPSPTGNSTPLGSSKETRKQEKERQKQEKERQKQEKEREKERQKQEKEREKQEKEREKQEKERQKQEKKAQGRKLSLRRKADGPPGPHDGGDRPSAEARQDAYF
UniProt Q9NZ72: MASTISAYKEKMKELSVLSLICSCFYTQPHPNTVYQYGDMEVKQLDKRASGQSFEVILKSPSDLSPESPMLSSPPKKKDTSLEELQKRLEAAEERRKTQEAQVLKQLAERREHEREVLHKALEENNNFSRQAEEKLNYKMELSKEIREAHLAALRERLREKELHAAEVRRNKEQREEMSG
UniProt O60506: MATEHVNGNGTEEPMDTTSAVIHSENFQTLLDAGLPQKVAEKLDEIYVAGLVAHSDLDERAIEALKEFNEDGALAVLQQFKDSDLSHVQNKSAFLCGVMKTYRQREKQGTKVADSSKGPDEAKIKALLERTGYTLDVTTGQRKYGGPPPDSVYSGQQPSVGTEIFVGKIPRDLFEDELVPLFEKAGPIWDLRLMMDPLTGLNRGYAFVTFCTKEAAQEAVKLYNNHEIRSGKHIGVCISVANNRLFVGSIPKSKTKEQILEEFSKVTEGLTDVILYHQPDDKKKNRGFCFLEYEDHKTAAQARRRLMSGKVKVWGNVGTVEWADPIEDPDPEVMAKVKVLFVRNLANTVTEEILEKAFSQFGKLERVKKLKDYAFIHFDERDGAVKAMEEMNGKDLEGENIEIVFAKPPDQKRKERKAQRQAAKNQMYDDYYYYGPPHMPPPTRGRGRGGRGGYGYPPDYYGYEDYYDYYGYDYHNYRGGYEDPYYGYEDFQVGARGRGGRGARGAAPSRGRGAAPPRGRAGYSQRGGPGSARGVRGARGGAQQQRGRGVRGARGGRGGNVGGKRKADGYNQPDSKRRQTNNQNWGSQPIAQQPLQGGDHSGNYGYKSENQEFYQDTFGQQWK
UniProt Q9UI15: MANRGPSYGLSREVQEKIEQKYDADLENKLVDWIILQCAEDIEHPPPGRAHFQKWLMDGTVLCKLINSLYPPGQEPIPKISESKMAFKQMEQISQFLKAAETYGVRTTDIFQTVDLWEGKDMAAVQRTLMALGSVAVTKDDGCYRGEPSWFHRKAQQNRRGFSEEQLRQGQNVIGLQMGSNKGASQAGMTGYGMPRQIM
UniProt Q9ULQ0: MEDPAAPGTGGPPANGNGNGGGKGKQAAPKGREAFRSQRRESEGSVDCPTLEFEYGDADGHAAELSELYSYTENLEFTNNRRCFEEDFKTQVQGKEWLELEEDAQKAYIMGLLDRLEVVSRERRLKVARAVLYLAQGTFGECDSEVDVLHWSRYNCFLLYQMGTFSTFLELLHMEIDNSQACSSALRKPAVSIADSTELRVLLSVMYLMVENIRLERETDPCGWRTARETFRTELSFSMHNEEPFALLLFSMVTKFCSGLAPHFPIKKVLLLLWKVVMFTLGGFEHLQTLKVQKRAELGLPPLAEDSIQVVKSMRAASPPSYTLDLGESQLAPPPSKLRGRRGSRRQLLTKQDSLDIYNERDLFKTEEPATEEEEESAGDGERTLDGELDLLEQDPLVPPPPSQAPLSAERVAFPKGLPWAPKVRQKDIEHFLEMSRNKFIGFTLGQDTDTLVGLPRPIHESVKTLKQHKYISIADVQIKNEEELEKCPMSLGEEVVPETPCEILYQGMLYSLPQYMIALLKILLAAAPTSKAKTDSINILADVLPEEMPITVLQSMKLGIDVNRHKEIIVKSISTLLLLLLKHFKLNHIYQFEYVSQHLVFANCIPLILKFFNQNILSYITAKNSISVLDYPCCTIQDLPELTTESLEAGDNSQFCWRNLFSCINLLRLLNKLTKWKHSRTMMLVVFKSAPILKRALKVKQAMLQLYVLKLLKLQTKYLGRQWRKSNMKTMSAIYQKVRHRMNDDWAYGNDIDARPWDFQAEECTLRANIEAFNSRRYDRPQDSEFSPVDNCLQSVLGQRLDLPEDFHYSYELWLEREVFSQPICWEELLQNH
UniProt Q96SI9: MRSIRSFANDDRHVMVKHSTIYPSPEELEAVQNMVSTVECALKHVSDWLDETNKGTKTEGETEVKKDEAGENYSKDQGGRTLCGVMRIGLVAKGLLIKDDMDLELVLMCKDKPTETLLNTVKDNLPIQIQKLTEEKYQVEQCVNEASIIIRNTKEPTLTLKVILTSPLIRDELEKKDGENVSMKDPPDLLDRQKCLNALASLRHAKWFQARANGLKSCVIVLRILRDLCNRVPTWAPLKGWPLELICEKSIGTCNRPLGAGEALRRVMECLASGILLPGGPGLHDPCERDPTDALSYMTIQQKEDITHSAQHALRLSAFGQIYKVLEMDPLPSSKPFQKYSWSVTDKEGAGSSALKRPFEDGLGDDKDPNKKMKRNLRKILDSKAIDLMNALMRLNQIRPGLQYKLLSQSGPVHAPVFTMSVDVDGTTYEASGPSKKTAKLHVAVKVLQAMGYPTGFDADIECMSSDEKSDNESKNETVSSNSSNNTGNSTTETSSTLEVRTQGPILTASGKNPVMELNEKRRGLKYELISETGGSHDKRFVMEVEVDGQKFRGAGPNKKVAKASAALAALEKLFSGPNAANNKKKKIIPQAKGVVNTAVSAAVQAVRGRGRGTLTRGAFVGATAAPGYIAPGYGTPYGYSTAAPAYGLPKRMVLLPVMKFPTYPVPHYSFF
UniProt O00268, whole entry, looked up: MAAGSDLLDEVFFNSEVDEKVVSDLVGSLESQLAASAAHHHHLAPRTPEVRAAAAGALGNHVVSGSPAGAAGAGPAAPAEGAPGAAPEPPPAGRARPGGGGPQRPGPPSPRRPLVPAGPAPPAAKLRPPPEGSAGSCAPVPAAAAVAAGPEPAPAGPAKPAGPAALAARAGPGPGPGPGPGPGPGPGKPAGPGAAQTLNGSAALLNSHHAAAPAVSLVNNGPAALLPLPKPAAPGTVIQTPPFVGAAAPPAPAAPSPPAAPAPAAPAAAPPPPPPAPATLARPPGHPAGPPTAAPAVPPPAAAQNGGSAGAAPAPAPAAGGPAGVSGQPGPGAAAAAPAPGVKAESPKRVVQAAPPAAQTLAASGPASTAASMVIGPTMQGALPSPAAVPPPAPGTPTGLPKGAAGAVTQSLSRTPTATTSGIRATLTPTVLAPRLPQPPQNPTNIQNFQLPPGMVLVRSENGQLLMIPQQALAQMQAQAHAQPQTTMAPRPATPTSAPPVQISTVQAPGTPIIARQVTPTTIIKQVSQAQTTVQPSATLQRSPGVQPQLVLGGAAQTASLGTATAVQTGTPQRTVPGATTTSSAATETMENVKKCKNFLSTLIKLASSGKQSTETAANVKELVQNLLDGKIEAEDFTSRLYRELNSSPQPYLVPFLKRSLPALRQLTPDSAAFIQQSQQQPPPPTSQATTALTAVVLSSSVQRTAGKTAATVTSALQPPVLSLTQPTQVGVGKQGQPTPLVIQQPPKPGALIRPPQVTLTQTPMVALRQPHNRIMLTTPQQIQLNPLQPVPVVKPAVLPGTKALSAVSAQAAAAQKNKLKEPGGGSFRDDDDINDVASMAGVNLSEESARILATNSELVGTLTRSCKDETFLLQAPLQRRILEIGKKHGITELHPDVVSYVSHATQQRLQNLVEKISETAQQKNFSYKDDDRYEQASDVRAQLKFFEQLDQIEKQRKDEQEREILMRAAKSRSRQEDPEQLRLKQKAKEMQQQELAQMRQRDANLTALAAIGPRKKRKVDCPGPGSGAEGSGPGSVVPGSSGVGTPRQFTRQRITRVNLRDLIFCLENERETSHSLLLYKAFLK
UniProt Q9UNK0: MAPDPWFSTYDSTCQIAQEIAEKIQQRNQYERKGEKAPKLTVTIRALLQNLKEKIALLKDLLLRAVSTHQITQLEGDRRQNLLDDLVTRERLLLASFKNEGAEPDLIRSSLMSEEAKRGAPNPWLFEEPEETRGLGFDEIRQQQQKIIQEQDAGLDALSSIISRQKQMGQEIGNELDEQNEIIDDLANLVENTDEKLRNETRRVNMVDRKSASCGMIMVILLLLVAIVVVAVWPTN

Columns and labels:
Assay in all cases: log2 fold change, soluble protein after heating vs DMSO (PISA); higher = thermal stabilisation; K562 cells, 10 uM, 30 min; active = over 0.2 and 3.5 SD of the protein, either way, in both replicates (recomputed)
[1] = compound: NC(=O)Nc1cc(-c2cccc(F)c2)sc1C(=O)N[C@H]1CCCNC1
In short: (§1)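 K562 cells at 2×10^6 cells/mL were given 10 μM compound for 30 min. Aliquots then went through 3 min of heating across 48°C-58°C, were pooled, and were extracted in PBS with 0.5% NP-40 at 4°C, and the supernatant after 21,000xg for 90 min was quantified by TMTpro 16plex LC-MS/MS with channel sums equalised. Thermal stability relative to control samples, from duplicates, is given as log2 fold change.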

[2] = compound: NC(=O)c1cnc(N[C@@H]2CCCC[C@@H]2N)nc1Nc1cccc(-n2nccn2)c1
In short: as §1

[3] = compound: NC1(c2ccc(-c3nc4ccn5c(=O)[nH]nc5c4cc3-c3ccccc3)cc2)CCC1
In short: as §1

[4] = compound: NCC(=O)Nc1ccc(-n2nc(C(F)(F)F)cc2-c2ccc3c(ccc4ccccc43)c2)cc1
In short: as §1

entinostat = compound: Nc1ccccc1NC(=O)c1ccc(CNC(=O)OCc2cccnc2)cc1 [entinostat]
In short: as §1

vorinostat = compound: O=C(CCCCCCC(=O)Nc1ccccc1)NO [vorinostat]
In short: as §1

citarinostat = compound: O=C(CCCCCCNC(=O)c1cnc(N(c2ccccc2)c2ccccc2Cl)nc1)NO [citarinostat]
In short: as §1

silmitasertib = compound: O=C(O)c1ccc2c(c1)nc(Nc1cccc(Cl)c1)c1ccncc12 [silmitasertib]
In short: as §1

[5] = compound: O=C1NC(=O)C(c2cnc3ccccn23)=C1c1cn2c3c(cc(F)cc13)CN(C(=O)N1CCCCC1)CC2
In short: as §1

[6] = compound: c1cc(OCCN2CCCCC2)cc(-c2n[nH]c3ccc(-c4nnc[nH]4)cc23)c1
In short: as §1

Measured: log2 fold change

SYVN1 (UniProt Q86TM6)
inactive: [1] 0.001 | [2] -0.051 | [3] -0.033 | [4] -0.06 | entinostat -0.013 | vorinostat -0.042 | citarinostat 0.031 | silmitasertib 0.002 | [5] 0.005 | [6] -0.051

TACO1 (UniProt Q9BSH4)
inactive: [1] -0.054 | [2] -0.123 | [3] -0.145 | [4] 0.026 | entinostat 0.144 | vorinostat 0.127 | citarinostat 0.189 | silmitasertib -0.011 | [5] -0.141 | [6] 0.092

STT3B (UniProt Q8TCJ2)
inactive: [1] -0.026 | [2] -0.051 | [3] -0.047 | [4] 0.061 | entinostat 0.041 | vorinostat -0.042 | citarinostat 0.027 | silmitasertib 0.124 | [5] 0.001 | [6] -0.045

SUGP1 (UniProt Q8IWZ8)
inactive: [1] 0 | [2] -0.05 | [3] -0.073 | [4] -0.071 | entinostat 0.054 | vorinostat 0.077 | citarinostat 0.074 | silmitasertib 0.101 | [5] -0.065 | [6] 0.045

SYF2 (UniProt O95926)
inactive: [1] 0.099 | [2] 0.089 | [3] -0.032 | [4] 0.101 | entinostat -0.022 | vorinostat -0.11 | citarinostat -0.069 | silmitasertib 0.016 | [5] 0.14 | [6] -0.153

Two entries drawn at random from the list so far:
SYVN1 (UniProt Q86TM6)
inactive: [1] 0.001 | [2] -0.051 | [3] -0.033 | [4] -0.06 | entinostat -0.013 | vorinostat -0.042 | citarinostat 0.031 | silmitasertib 0.002 | [5] 0.005 | [6] -0.051

SUGP1 (UniProt Q8IWZ8)
inactive: [1] 0 | [2] -0.05 | [3] -0.073 | [4] -0.071 | entinostat 0.054 | vorinostat 0.077 | citarinostat 0.074 | silmitasertib 0.101 | [5] -0.065 | [6] 0.045

(next part)

STRADA (UniProt Q7RTN6)
inactive: [1] -0.034 | [2] -0.008 | [3] 0.027 | [4] -0.004 | entinostat -0.037 | vorinostat 0.054 | citarinostat 0.034 | silmitasertib -0.004 | [5] -0.095 | [6] -0.013

STX17 (UniProt P56962)
inactive: [1] 0.027 | [2] -0.073 | [3] -0.096 | [4] 0.126 | entinostat -0.001 | vorinostat -0.02 | citarinostat 0.254 | silmitasertib 0.087 | [5] -0.026 | [6] -0.059

SYNE1 (UniProt Q8NF91)
inactive: [1] -0.006 | [2] -0.031 | [3] -0.008 | [4] 0.04 | entinostat -0.027 | vorinostat 0.114 | citarinostat 0.106 | silmitasertib -0.03 | [5] -0.244 | [6] 0.006

TAPBP isoform 3 (UniProt O15533)
inactive: [1] 0.198 | [2] 0.12 | [3] -0.139 | [4] -0.041 | entinostat 0.392 | vorinostat 0.259 | citarinostat 0.164 | silmitasertib -0.029 | [5] -0.216 | [6] 0.044

SURF1 (UniProt Q15526)
inactive: [1] -0.007 | [2] 0.014 | [3] -0.176 | [4] -0.135 | entinostat 0.077 | vorinostat 0.059 | citarinostat 0.112 | silmitasertib -0.04 | [5] -0.031 | [6] -0.043

SUN1 isoform 9 (UniProt O94901)
inactive: [1] -0.035 | [2] -0.073 | [3] -0.028 | [4] 0.102 | entinostat 0.18 | vorinostat 0.06 | citarinostat -0.115 | silmitasertib -0.009 | [5] -0.226 | [6] 0.075

STX4 (UniProt Q12846)
inactive: [1] -0.13 | [2] 0.07 | [3] 0.029 | [4] -0.015 | entinostat -0.005 | vorinostat -0.004 | citarinostat 0.022 | silmitasertib 0.014 | [5] -0.063 | [6] 0.048

TBC1D10B (UniProt Q4KMP7)
inactive: [1] -0.141 | [2] 0.007 | [3] 0.038 | [4] -0.027 | entinostat 0.017 | vorinostat -0.03 | citarinostat 0.039 | silmitasertib -0.009 | [5] -0.005
active: [6] -0.283

TACC1 isoform 2 (UniProt O75410)
inactive: [1] -0.039 | [2] -0.025 | [3] -0.042 | [4] -0.013 | entinostat -0.028 | vorinostat -0.022 | citarinostat 0.028 | silmitasertib 0.04 | [5] -0.046 | [6] -0.01

STRN (UniProt O43815)
inactive: [1] -0.055 | [2] 0.019 | [3] -0.037 | [4] 0.019 | entinostat -0.008 | vorinostat 0.024 | citarinostat 0.028 | silmitasertib 0 | [5] -0.051 | [6] -0.031

STMN3 (UniProt Q9NZ72)
inactive: [1] -0.124 | [2] -0.006 | [3] -0.004 | [4] 0.016 | entinostat -0.001 | vorinostat -0.012 | citarinostat 0.068 | silmitasertib -0.008 | [5] -0.012 | [6] 0.011

SYNCRIP (UniProt O60506)
inactive: [1] 0 | [2] 0.019 | [3] 0.171 | [4] 0.032 | entinostat -0.043 | vorinostat 0 | citarinostat -0.116 | silmitasertib 0.107 | [5] 0.094 | [6] -0.118

STXBP2 isoform 3 (UniProt Q15833)
inactive: [1] -0.084 | [2] -0.066 | [3] -0.12 | [4] -0.051 | entinostat 0.035 | vorinostat 0.105 | citarinostat 0.046 | silmitasertib 0.112 | [5] 0.141 | [6] 0.036

SUN2 (UniProt Q9UH99)
inactive: [1] 0.002 | [2] 0.011 | [3] -0.054 | [4] -0.03 | entinostat 0.054 | vorinostat 0.018 | citarinostat 0.019 | silmitasertib 0.007 | [5] 0.097 | [6] -0.087

TAGLN3 (UniProt Q9UI15)
inactive: [1] -0.17 | [2] -0.179 | [3] -0.141 | [4] 0.022 | entinostat -0.072 | silmitasertib -0.158 | [5] -0.057

STRIP2 (UniProt Q9ULQ0)
inactive: [1] 0.25 | [2] -0.028 | [3] -0.043 | [4] -0.016 | entinostat 0.061 | vorinostat -0.042 | citarinostat 0.07 | silmitasertib 0.122 | [5] 0.063 | [6] -0.068

STRBP (UniProt Q96SI9)
inactive: [1] -0.153 | [2] 0.02 | [3] 0.064 | [4] -0.283 | entinostat 0.028 | citarinostat -0.113 | silmitasertib 0.01 | [5] 0.147 | [6] -0.198

SUMO3 isoform 2 (UniProt P55854)
inactive: [1] 0.014 | [2] 0.034 | [3] 0.106 | [4] 0.021 | entinostat -0.115 | vorinostat -0.056 | citarinostat -0.014 | silmitasertib -0.008 | [5] 0 | [6] -0.127

TAF4 (UniProt O00268)
inactive: [1] -0.038 | [2] 0.104 | [3] 0.074 | [4] 0.229 | entinostat -0.046 | vorinostat 0.118 | silmitasertib 0.028 | [5] -0.06

STX8 (UniProt Q9UNK0)
inactive: [1] 0.067 | [2] 0.042 | [3] -0.073 | [4] 0.022 | entinostat -0.007 | vorinostat -0.018 | citarinostat 0.006 | silmitasertib 0.041 | [5] 0.028 | [6] -0.03

TALDO1 (UniProt P37837)
inactive: [1] 0 | [2] -0.042 | [3] -0.077 | [4] 0.002 | entinostat 0.022 | vorinostat 0.04 | citarinostat -0.01 | silmitasertib -0.078 | [5] -0.057 | [6] 0.02

SUB1 (UniProt P53999)
inactive: [1] -0.007 | [2] -0.009 | [3] 0.008 | [4] -0.018 | entinostat -0.025 | vorinostat -0.002 | citarinostat -0.035 | silmitasertib -0.02 | [5] -0.06 | [6] 0.062

TARS1 (UniProt P26639)
inactive: [1] -0.02 | [2] -0.079 | [3] -0.184 | [4] -0.04 | entinostat 0.02 | vorinostat 0.04 | citarinostat 0.035 | silmitasertib -0.019 | [5] -0.022 | [6] -0.018

SUPV3L1 (UniProt Q8IYB8)
inactive: [1] -0.024 | [2] -0.054 | [3] -0.072 | [4] -0.033 | entinostat 0.011 | vorinostat -0.007 | citarinostat 0.035 | silmitasertib 0.03 | [5] -0.019 | [6] -0.029

SYNJ2 (UniProt O15056)
inactive: [1] -0.274 | [2] -0.094 | [3] -0.131 | [4] -0.169 | entinostat 0.065 | vorinostat 0.06 | silmitasertib 0.012 | [5] 0.044
